The amount applied is not stated for every result.
System: DDC-expressing 3T3 cells
Experiment: Co-culture differential proteome labeling (LC-MS/MS, species-specific peptides)
Assay type: cell-based
Conditions: co-culture with lyr-MDA-MB-231 in DAP (L) and D-Lysine (H), after three passages; mouse-specific peptides

`N[C@H](CCC[C@H](N)C(=O)O)C(=O)O` [DAP, meso-2,6-diaminopimelate] was tested, and the “log 2 H/L” value was about −0.4 log 2 H/L.
